This assay has as its target T1, CD20 protein on CD20 protein-positive lymphoma cell Raji (ATCC CCL-86) (UniProt P11836).
T1 sequence (looked up): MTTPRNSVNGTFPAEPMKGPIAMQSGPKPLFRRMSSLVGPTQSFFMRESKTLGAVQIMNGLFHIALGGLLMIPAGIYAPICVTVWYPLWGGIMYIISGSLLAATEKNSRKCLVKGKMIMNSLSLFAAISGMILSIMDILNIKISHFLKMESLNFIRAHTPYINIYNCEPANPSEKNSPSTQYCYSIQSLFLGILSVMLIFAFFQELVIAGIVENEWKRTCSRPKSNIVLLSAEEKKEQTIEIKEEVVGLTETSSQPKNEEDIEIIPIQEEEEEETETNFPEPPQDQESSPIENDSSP
Put plainly: flow cytometry, fluorescently labeled antibody on Raji cells. For orientation: Flow cytometry measures light scatter and fluorescence of single cells or particles in a stream.

Residue numbers refer to the chain shown, from its start. No constants are given. Whether binding was seen depends on the method and setting. Some binding calls cover weakened binding; strength is not graded here.

B1: novel CD20 antibody H102YW (antibody, human IgG1, V domains shown)
VH: QVQLQQPGAELVKPGASVKMSCKASGYTFTSYNMHWVKQTPGRGLEWIGAIYPGNGDTSYNQKFKGKATLTADKSSSTAYMQLSSLTSEDSAVYYCARSTYWGGDWYFNVWGAGTTVTVSA
VL: QIVLSQSPAILSASPGEKVTMTCRASSSVSYIHWFQQKPGSSPKPWIYATSNLASGVPVRFSGSGSGTSYSLTISRVEAEDAATYYCQQWTSNPPTFGGGTKLEIKV
B1: the binding entry is “binds”.

B2: novel CD20 antibody H102YT (antibody, human IgG1, V domains shown)
VH: B1 VH with W102T
VL: B1 VL
For the molecule B2, the binding result was “binds”.

The record behind these values is patent publication US20190135934A1 (published 2019).
